This is one part of the list.
Legend:
Assay in all cases: glycan array binding signal (z-score within array); higher = stronger binding
Conditions in all cases: glycan notation: IUPAC condensed, linker removed
[1] = target: Gal(b1-4)GlcNAc(b1-3)Gal(b1-4)GlcNAc(b1-3)Gal(b1-4)GlcNAc(b1-3)Gal(b1-4)GlcNAc(b1-2)Man(a1-3)[Gal(b1-4)GlcNAc(b1-3)Gal(b1-4)GlcNAc(b1-3)Gal(b1-4)GlcNAc(b1-3)Gal(b1-4)GlcNAc(b1-2)Man(a1-6)]Man(b1-4)GlcNAc(b1-4)[Fuc(a1-6)]GlcNAc
Procedure, shortened: (§1)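 Columns mapping to the same glycan were averaged after glycan names were converted to IUPAC-condensed notation. The data come from 3228 arrays in the Consortium for Functional Glycomics database, limited to those with an available protein sequence. Binding is reported as a within-array Z-score averaged across arrays of one protein sequence and across linkers.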

[2] = target: Gal(b1-4)GlcNAc(b1-3)Gal(b1-4)GlcNAc(b1-3)Gal(b1-4)GlcNAc(b1-3)Gal(b1-4)GlcNAc(b1-2)[Gal(b1-4)GlcNAc(b1-3)Gal(b1-4)GlcNAc(b1-3)Gal(b1-4)GlcNAc(b1-3)Gal(b1-4)GlcNAc(b1-6)]Man(a1-6)[Gal(b1-4)GlcNAc(b1-3)Gal(b1-4)GlcNAc(b1-3)Gal(b1-4)GlcNAc(b1-3)Gal(b1-4)GlcNAc(b1-2)Man(a1-3)]Man(b1-4)GlcNAc(b1-4)[Fuc(a1-6)]GlcNAc
Procedure, shortened: as §1

[3] = target: Gal(b1-4)GlcNAc(b1-3)Gal(b1-4)GlcNAc(b1-3)Gal(b1-4)GlcNAc(b1-3)Gal(b1-4)GlcNAc(b1-3)Gal(b1-4)GlcNAc(b1-2)Man(a1-3)[Gal(b1-4)GlcNAc(b1-3)Gal(b1-4)GlcNAc(b1-3)Gal(b1-4)GlcNAc(b1-3)Gal(b1-4)GlcNAc(b1-3)Gal(b1-4)GlcNAc(b1-2)Man(a1-6)]Man(b1-4)GlcNAc(b1-4)GlcNAc
Procedure, shortened: as §1

[4] = target: Gal(b1-4)GlcNAc(b1-3)Gal(b1-4)GlcNAc(b1-3)Gal(b1-4)GlcNAc(b1-3)Gal(b1-4)GlcNAc(b1-3)Gal(b1-4)GlcNAc(b1-2)Man(a1-3)[Gal(b1-4)GlcNAc(b1-3)Gal(b1-4)GlcNAc(b1-3)Gal(b1-4)GlcNAc(b1-3)Gal(b1-4)GlcNAc(b1-3)Gal(b1-4)GlcNAc(b1-2)Man(a1-6)]Man(b1-4)GlcNAc(b1-4)[Fuc(a1-6)]GlcNAc
Procedure, shortened: as §1

[5] = target: Gal(b1-4)GlcNAc(b1-3)Gal(b1-4)GlcNAc(b1-3)Gal(b1-4)GlcNAc(b1-3)Gal(b1-4)GlcNAc(b1-3)Gal(b1-4)GlcNAc(b1-2)[Gal(b1-4)GlcNAc(b1-3)Gal(b1-4)GlcNAc(b1-3)Gal(b1-4)GlcNAc(b1-3)Gal(b1-4)GlcNAc(b1-3)Gal(b1-4)GlcNAc(b1-6)]Man(a1-6)[Gal(b1-4)GlcNAc(b1-3)Gal(b1-4)GlcNAc(b1-3)Gal(b1-4)GlcNAc(b1-3)Gal(b1-4)GlcNAc(b1-3)Gal(b1-4)GlcNAc(b1-2)Man(a1-3)]Man(b1-4)GlcNAc(b1-4)[Fuc(a1-6)]GlcNAc
Procedure, shortened: as §1

[6] = target: Gal(b1-4)GlcNAc(b1-3)Gal(b1-4)GlcNAc(b1-3)Gal(b1-4)GlcNAc(b1-3)Gal(b1-4)GlcNAc(b1-3)Gal(b1-4)GlcNAc(b1-3)Gal(b1-4)GlcNAc(b1-2)Man(a1-3)[Gal(b1-4)GlcNAc(b1-3)Gal(b1-4)GlcNAc(b1-3)Gal(b1-4)GlcNAc(b1-3)Gal(b1-4)GlcNAc(b1-3)Gal(b1-4)GlcNAc(b1-3)Gal(b1-4)GlcNAc(b1-2)Man(a1-6)]Man(b1-4)GlcNAc(b1-4)GlcNAc
Procedure, shortened: as §1

[7] = target: Gal(b1-4)GlcNAc(b1-3)Gal(b1-4)GlcNAc(b1-3)GalNAc
Procedure, shortened: as §1

[8] = target: Gal(b1-4)GlcNAc(b1-3)Gal(b1-4)GlcNAc(b1-3)[Gal(b1-4)GlcNAc(b1-3)Gal(b1-4)GlcNAc(b1-6)]GalNAc
Procedure, shortened: as §1

[9] = target: Gal(b1-4)GlcNAc(b1-3)Gal(b1-4)GlcNAc(b1-6)[Gal(b1-3)]GalNAc
Procedure, shortened: as §1

[10] = target: Gal(b1-4)GlcNAc(b1-3)Gal(b1-4)[Fuc(a1-3)]GlcNAc(b1-3)Gal(b1-4)[Fuc(a1-3)]GlcNAc
Procedure, shortened: as §1

[11] = target: Gal(b1-4)GlcNAc(b1-3)GalNAc
Procedure, shortened: as §1

[12] = target: Gal(b1-4)GlcNAc(b1-3)[Fuc(a1-3)GlcNAc(b1-6)]Gal(b1-4)Glc
Procedure, shortened: as §1

[13] = target: Gal(b1-4)GlcNAc(b1-3)[Gal(b1-4)GlcNAc(b1-6)]Gal(b1-4)GlcNAc
Procedure, shortened: as §1

[14] = target: Gal(b1-4)GlcNAc(b1-3)[GlcNAc(b1-6)]Gal(b1-4)GlcNAc
Procedure, shortened: as §1

[15] = target: Gal(b1-4)GlcNAc(b1-6)Gal(b1-4)GlcNAc
Procedure, shortened: as §1

[16] = target: Gal(b1-4)GlcNAc(b1-6)GalNAc
Procedure, shortened: as §1

[17] = target: Gal(b1-4)GlcNAc(b1-6)[Gal(b1-3)]GalNAc
Procedure, shortened: as §1

[18] = target: Gal(b1-4)GlcNAc(b1-6)[Gal(b1-4)GlcNAc(b1-3)]GalNAc
Procedure, shortened: as §1

Gal(b1-4)GlcNAc6P = target: Gal(b1-4)GlcNAc6P
Procedure, shortened: as §1

Gal(b1-6)Gal = target: Gal(b1-6)Gal
Procedure, shortened: as §1

Gal3S(b1-3)GalNAc = target: Gal3S(b1-3)GalNAc
Procedure, shortened: as §1

Gal3S(b1-3)GlcNAc = target: Gal3S(b1-3)GlcNAc
Procedure, shortened: as §1

[19] = target: Gal3S(b1-3)[Fuc(a1-4)]GlcNAc
Procedure, shortened: as §1

B1: SJCP1531 (Schistosoma japonicum) (protein)
chain: MFKVRIINLVNISTVLLLINLLQTKSQVNVEQLVTVLEVNIKAQLKNKTTEVLVEWNPLYQDNSMPEYRKLLDETCKLFLPFVNEKVPPSTYGGECTNANFSEAPQDGSYSRVNAELRLIYKYSDNPQIQTDRLQDDLNDREEFITSESSFVAYNPKFTVKIEKLFIPISESQTTPPPTTAKNDASKKDDDDNGGEDSKAPIDTFAMTASGNKGKKDDDDNGGEDSKAPIDTFAMTASGSKDERSTWTIIGIITLVVLIFVVIGGGITVFVKRC
[1]
  glycan array binding signal (z-score): 0.918
[2]
  glycan array binding signal (z-score): 0.937
[3]
  glycan array binding signal (z-score): -0.65
[4]
  glycan array binding signal (z-score): 0.44
[5]
  glycan array binding signal (z-score): 2.63
[6]
  glycan array binding signal (z-score): -0.153
[7]
  glycan array binding signal (z-score): -0.193
[8]
  glycan array binding signal (z-score): 2.8
[9]
  glycan array binding signal (z-score): 1.62
[10]
  glycan array binding signal (z-score): 1.49
[11]
  glycan array binding signal (z-score): -0.998
[12]
  glycan array binding signal (z-score): -0.422
[13]
  glycan array binding signal (z-score): 0.173
[14]
  glycan array binding signal (z-score): 0.811
[15]
  glycan array binding signal (z-score): -0.497
[16]
  glycan array binding signal (z-score): 0.703
[17]
  glycan array binding signal (z-score): 0.77
[18]
  glycan array binding signal (z-score): -0.768
Gal(b1-4)GlcNAc6P
  glycan array binding signal (z-score): 0.145
Gal(b1-6)Gal
  glycan array binding signal (z-score): -0.493
Gal3S(b1-3)GalNAc
  glycan array binding signal (z-score): 0.534
Gal3S(b1-3)GlcNAc
  glycan array binding signal (z-score): 0.215
[19]
  glycan array binding signal (z-score): -0.535
